Test results as given in PubChem BioAssay AID2685 (National Center for Advancing Translational Sciences (NCATS), 2010).
The campaign covered roughly 320,000 compounds. About 2,100 (0.66%) were called active. The shares of active, inactive and inconclusive entries below differ from those in the screen. The call rests on the fitted dose curve; in most records, active means well fitted inhibition curve with a large enough effect in the signal ratio, with a control signal flat (not every such curve was filed as active); inconclusive means small, poorly fitted or top-dose-only effect, or effect the other way, or a change in a side signal; inactive means flat fitted curve, though single readings scatter; the % refers to the signal ratio. Where the call is inconclusive, the potency comes from a doubtful curve fit.

Experiment: qHTS Assay for Lipid Storage Modulators in Drosophila S3 Cells
Settings: BODIPY lipid droplet fluorescence, 18-24 h, cells fed with added oleic acid; lipid storage change, negative = inhibition: at 46.1 µM (top of the series) unless noted
Outline: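 Drosophila S3 cells loaded with oleic acid (400 uM, as added) and compounds at several concentrations; lipid droplets imaged by 488-nm laser-scanning cytometry, 500–530 nm intensity and object ratio to cell channel. Percent activity normalized to 20 uM Triacsin C.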
On the % scale 0 is the no-effect control and ±100 the full control effect; potency means the concentration at half of the fitted maximal effect.

| SMILES | lipid storage change, negative = inhibition | Potency |
| --- | --- | --- |
| CCCCCCOc1ccc(OC(=O)c2cccnc2)cc1 | inconclusive: -11.6% | – |
| O=C(CCn1c(=O)oc2ccccc21)Nc1ccccc1 | inconclusive: 22.7% | – |
| Cc1cc(C)c(NC(=O)CSc2nnc(-c3ccccn3)n2N)c(Cl)c1 | inconclusive: 1.16% | – |
| Cc1ccc(S(=O)(=O)N(C)CC(=O)N2CCN(Cc3ccc4c(c3)OCO4)CC2)cc1 | – | inconclusive: 29.1 µM [falling, partial curve, poor fit] |
| O=C(COC(=O)c1ccc[nH]c1=O)NCCCc1ccccc1 | inconclusive: 9.06% | – |
| N#Cc1c(NC(=O)c2ccncc2)sc2c1CCC2 | inconclusive: 35.8% | – |
| CC1CCC(NC(=O)Cn2cc3c(n2)CCCC3)CC1 (configuration not stated) | – | inconclusive: 0.651 µM [falling, full curve, poor fit] |
| Cc1ccc(Cl)c(NC(=O)CN2CCN(C=O)CC2)c1 | inconclusive: -54.6% | – |
| COc1ccc([N+](=O)[O-])cc1NC(=O)COC(=O)c1ccccn1 | inconclusive: -36.5% | – |
| CSc1ccccc1C(=O)C1CCCN(C(=O)c2cc(C(C)C)no2)C1 (configuration not stated) | inconclusive: -16.9% | – |
| CCOc1ccc(/C=C/c2c([N+](=O)[O-])c(=O)n(C)c(=O)n2C)cc1 | inconclusive: -31.1% [at 0.369 µM] | – |
| COc1ccc(Cl)cc1NC(=O)c1nnn(CC(=O)Nc2ccc3c(c2)OCO3)c1N | inconclusive: 3.33% | – |
| O=C(NN1CCOCC1)c1ccccc1 | – | inconclusive: 6.51 µM [activator, single point] |
| CC(C)(C)c1ccc(C(=O)Nc2ccc(CN3CCS(=O)(=O)CC3)cc2)cc1 | – | inconclusive: 32.6 µM [falling, single point] |
| Cc1snc(S(=O)(=O)Cc2ccccc2Cl)c1C#N | inconclusive: -19.6% | – |
| COCC(=O)N(Cc1cc2ccc(C)cc2[nH]c1=O)c1ccc(C)cc1C | inconclusive: -32.1% | – |
| CCNC(=O)/C(C#N)=C/c1c(N2CCN(C)CC2)nc2c(C)cccn2c1=O | – | inconclusive: 6.51 µM [activator, partial curve, poor fit] |
| COc1ccc(C)cc1NC(=O)Nc1ccncc1 | – | inconclusive: 6.51 µM [falling, single point] |
| Cc1ccc2[nH]c(=O)c(CN(CC3CCCO3)S(=O)(=O)c3cccc4nsnc34)cc2c1 (configuration not stated) | – | inconclusive: 8.2 µM [activator, partial curve] |
| CCS(=O)(=O)c1ccc(C(=O)Nc2ccccc2)c(Cl)c1Cl | – | inconclusive: 29.1 µM [activator, single point] |
| O=C(O)CCn1c(Cc2ccccc2)nc2ccccc21 | inconclusive: -37.4% | – |
| O=C(Cn1cnc2c(oc3ccccc32)c1=O)NCc1ccco1 | – | inconclusive: 4.61 µM [falling, single point] |
| O=C(NNC(=O)c1ccccc1O)c1ccc(S(=O)(=O)Nc2ccccc2)cc1 | inconclusive: -47% | – |
| CCOc1ccc(S(=O)(=O)N2CCCC(C(=O)N3CCCC3)C2)cc1 (configuration not stated) | – | inconclusive: 6.51 µM [falling, single point] |

Fetched by compound from the list above (2):

| SMILES | lipid storage change, negative = inhibition | Potency |
| --- | --- | --- |
| CCS(=O)(=O)c1ccc(C(=O)Nc2ccccc2)c(Cl)c1Cl | – | inconclusive: 29.1 µM [activator, single point] |
| COc1ccc([N+](=O)[O-])cc1NC(=O)COC(=O)c1ccccn1 | inconclusive: -36.5% | – |

Going on with the list.

| SMILES | lipid storage change, negative = inhibition | Potency |
| --- | --- | --- |
| Cc1ccc(CNC(=O)C2CCCN2C(=O)Nc2cccc(Cl)c2)cc1 (configuration not stated) | inconclusive: -49.1% | – |
| CSc1ccc(CN(C)C(=O)c2ccc(S(=O)(=O)Nc3ccccc3)cc2)cc1 | inconclusive: 0.0307% | – |
| O=C(NC1CCCc2ccccc21)C1CCN(S(=O)(=O)c2cccc3nonc23)CC1 (configuration not stated) | – | inconclusive: 18.4 µM [activator, partial curve] |
| O=[N+]([O-])c1ccccc1S(=O)(=O)N1CCN(Cc2ccc3c(c2)OCO3)CC1 | inconclusive: -22.5% | – |
| COc1ccc(NC(=O)C2CCN(c3ncnc4c3nc3n4CCCCC3)CC2)c(OC)c1 | inconclusive: 67.9% | – |
| CCSc1nnc(NC(=O)C2CC=CCC2C(=O)O)s1 (configuration not stated) | inconclusive: -6.74% | – |
| Cc1ccc(NC(=O)C2CCCN(C(=O)c3ccc(Cl)cc3)C2)cc1 (configuration not stated) | inconclusive: 11.1% | – |
| COc1ccc(Cn2c(C3CC3)nc3ccc(NC(C)=O)cc3c2=O)cc1 | inconclusive: 1.19% | – |
| CCOP(=O)(OCC)c1nc(-c2ccc(F)cc2)oc1NCc1ccccc1 | inconclusive: 22.7% | – |
| N#Cc1c(NC(=S)NC(=O)c2ccccc2)sc2c1CCCC2 | inconclusive: -0.94% | – |
| COc1cc(C2SCC(=O)N2c2c(C)n(C)n(-c3ccccc3)c2=O)ccc1O (configuration not stated) | inconclusive: -1.81% | – |
| CCCCN(C(=O)CSc1nncn1-c1ccccc1OC)c1c(N)n(Cc2ccccc2)c(=O)[nH]c1=O | inconclusive: 40.1% | – |
| CS(=O)(=O)NCCSCc1ccccc1 | – | inconclusive: 0.0164 µM [falling, full curve, poor fit] |
| O=C(Cn1c(-c2cscn2)nc2ccccc21)Nc1ccc2ccccc2c1 | inconclusive: 2.2% | – |
| CCOC(=O)C1CCN(C(=O)COC(=O)c2oc3ccc(OC)cc3c2C)CC1 | – | inconclusive: 0.116 µM [falling, full curve, poor fit] |
| COc1ccc(S(=O)(=O)n2oc(=O)cc2-c2ccccc2)cc1OC | – | inconclusive: 29.1 µM [activator, single point] |
| NC(=O)C1CCN(C(=O)COc2ccc3c(c2)oc(=O)c2ccccc23)CC1 | inconclusive: 46.6% | – |
| CCn1c(SC(C)C(=O)Nc2ccc(N3CCOCC3)cc2)nnc1C1CC1 (configuration not stated) | – | inconclusive: 0.366 µM [falling, full curve, poor fit] |
| COc1cc(C(=O)NCCC(=O)NCCCN2CCCCC2C)cc(OC)c1OC (configuration not stated) | inconclusive: 1.85% | – |
| COc1ccc(NC(=O)c2cc(S(=O)(=O)N3CCCC3)ccc2C)cn1 | – | inconclusive: 0.0731 µM [falling, full curve, poor fit] |
| COC(=O)c1c(NC(=O)CN2CCN(c3ccccc3OC)CC2)c2cc(C)ccc2n1C | – | inconclusive: 6.51 µM [activator, single point] |
| COc1ccc(NC(=O)CNC(=O)CC23CC4CC(CC(C4)C2)C3)c(OC)c1 | inconclusive | – |
| COc1ccc(NC(=O)C2CCN(S(C)(=O)=O)CC2)cc1OC | inactive | – |
